Here are results for nine substances from patent EP0206730 (dated 1986).

The nature of series [1]: general procedure: Boc solid-phase peptide synthesis; benzhydrylamine resin (BHA); Boc-Arg(Tos)-O-Bzl-Resin for C-terminal acids; DCC/HBT; DMAP for Pmp(4-MeBzl). The note with it: whole synthesis, scale of the general procedure 1.0 mmol.
A short description of series [2]: general procedure: Boc solid-phase peptide synthesis; BHA; DCC/HBT; DMAP for Pmp(4-MeBzl). The settings on record: whole synthesis, one disulfide bridge, sequence written open.
A short description of series [3]: general procedure: Boc solid-phase peptide synthesis; Boc-Cys(4-MeBzl)-chloromethylphenyl resin; DCC/HBT; DMAP for Pmp(4-MeBzl). The settings on record: whole synthesis, scale 0.5 mmol.
Series [4] is described as follows: general procedure: Boc solid-phase peptide synthesis; Boc-Arg(Tos)-OCH2C6H4-Resin; DCC/HBT; DMAP for Pmp(4-MeBzl). The note with it: whole synthesis, scale 1.0 mmol.
Series [5] in a line: general procedure: Boc solid-phase peptide synthesis; Boc-Arg(Tos)-O-Bzl-Resin; DCC/HBT; DMAP for Pmp(4-MeBzl). The settings on record: whole synthesis, scale 1.0 mmol, one disulfide bridge, sequence written open.
[6] abbreviates: one disulfide bridge, sequence written open.

Consider “Pmp-D-Tyr (Et) -Phe-Val-Asn-Cvs-Arg-D-Arg (NH2)”, for which the “final purity (method not given)” value in series [1] (setting [6]) was 98%. Moreover, the crude mass in series [2] (scale 1.0 mmol) stood at 252.46 mg.

In the case of “Pmp-D-Tyr (Et) -Phe-Val-Asn-Cys-Arg-Arg (NH2)”, the “final purity (method not given)” value in series [1] (setting [6]) is 96%. Also, in series [2] (scale 1.0 mmol), the crude mass was 284.19 mg.

As for “Pmp-D-Tyr (Et) -Phe-Val-Asn-Cys-D-Arg-Arg (NH2)”, in series [1] (setting [6]), the crude yield amounted to 35.2% and the “final purity (method not given)” value is 96-97%. The substance further gave a crude mass in series [2] (scale 1.0 mmol) of 371.09 mg.

Regarding “Pmp-D-Tyr (Et) -Phe-Val-Asn-Cys-Lys-Arg (NH2)”, the “final purity (method not given)” value in series [1] (setting [6]) is on record as 98-99%. This substance also registered a crude mass in series [2] (scale 1.0 mmol) of 710.17 mg.

Pmp-D-Tyr(Et)-Phe-Val-Asn-Cys(OH): in series [3], the isolated mass amounted to 80 mg.

In turn, Pmp-D-Tyr(Et)-Phe-Val-Asn-Cys-Arg(OH) showed an isolated mass in series [4] of 245 mg. Further, in series [1], the “final purity (method not given)” value was “about 90% pure” and the isolated yield came out at 25%.

In the case of “Pmp-D-Tyr(Et)-Phe-Val-Asn-Cys-Arg-Lys(NH2)”, in series [1] (setting [6]), the “final purity (method not given)” value is reported as 96-97%. Further, in series [2] (scale 1.0 mmol), the crude mass is on record as 702.5 mg.

For “Pmp-D-Tyr(Et)-Phe-Val-Asn-Cys-MeArgArgNH2”, in series [1] (setting [6]), the “final purity (method not given)” value is 97-98%. In addition, in series [2] (scale 0.5 mmol), the crude mass was 375 mg.

In the case of “Pmp-D-Tyr-(Et)-Phe-Val-Asn-Cys-Arg-Arg(OH)”, in series [1] (setting [6]), the “final purity (method not given)” value is 96.5% and the isolated yield was determined as 46.7%. Besides, in series [5], the isolated mass came to 549.62 mg.
